Test results taken from the supplement of paper PMC12823440, “Inhibitors supercharge kinase turnover through native proteolytic circuits” (Nature, 2025).
Counter-ions that a name gives are not always drawn. The list shows a part of the results. The calls rarely recur for the same compound in another form.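 In K562 cells expressing nanoluciferase-fused kinases, luminescence was recorded at 4 h intervals between 2 and 18 h, normalized as percent of control with DMSO at 100% and a positive control at 0%. A significant (2 sigma) signal drop marks a time point as decreased. The authors' rule for a hit is not shown and takes in more than the number of time points.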

Chains of the proteins cited; added tags and fusions are not shown. Lines headed by an entry give the natural chain unless they say otherwise; changes in a name come on top.
UniProt P50750, whole entry: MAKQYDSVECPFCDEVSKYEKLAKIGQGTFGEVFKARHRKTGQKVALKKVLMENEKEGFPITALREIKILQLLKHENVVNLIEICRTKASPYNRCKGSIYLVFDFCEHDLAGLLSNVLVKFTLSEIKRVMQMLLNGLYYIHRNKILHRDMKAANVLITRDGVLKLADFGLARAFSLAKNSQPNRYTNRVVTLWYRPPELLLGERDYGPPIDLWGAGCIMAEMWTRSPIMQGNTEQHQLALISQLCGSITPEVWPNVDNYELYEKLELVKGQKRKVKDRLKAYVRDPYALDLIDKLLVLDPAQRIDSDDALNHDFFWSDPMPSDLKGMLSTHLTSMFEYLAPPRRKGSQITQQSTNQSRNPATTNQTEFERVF
UniProt P07333, whole entry: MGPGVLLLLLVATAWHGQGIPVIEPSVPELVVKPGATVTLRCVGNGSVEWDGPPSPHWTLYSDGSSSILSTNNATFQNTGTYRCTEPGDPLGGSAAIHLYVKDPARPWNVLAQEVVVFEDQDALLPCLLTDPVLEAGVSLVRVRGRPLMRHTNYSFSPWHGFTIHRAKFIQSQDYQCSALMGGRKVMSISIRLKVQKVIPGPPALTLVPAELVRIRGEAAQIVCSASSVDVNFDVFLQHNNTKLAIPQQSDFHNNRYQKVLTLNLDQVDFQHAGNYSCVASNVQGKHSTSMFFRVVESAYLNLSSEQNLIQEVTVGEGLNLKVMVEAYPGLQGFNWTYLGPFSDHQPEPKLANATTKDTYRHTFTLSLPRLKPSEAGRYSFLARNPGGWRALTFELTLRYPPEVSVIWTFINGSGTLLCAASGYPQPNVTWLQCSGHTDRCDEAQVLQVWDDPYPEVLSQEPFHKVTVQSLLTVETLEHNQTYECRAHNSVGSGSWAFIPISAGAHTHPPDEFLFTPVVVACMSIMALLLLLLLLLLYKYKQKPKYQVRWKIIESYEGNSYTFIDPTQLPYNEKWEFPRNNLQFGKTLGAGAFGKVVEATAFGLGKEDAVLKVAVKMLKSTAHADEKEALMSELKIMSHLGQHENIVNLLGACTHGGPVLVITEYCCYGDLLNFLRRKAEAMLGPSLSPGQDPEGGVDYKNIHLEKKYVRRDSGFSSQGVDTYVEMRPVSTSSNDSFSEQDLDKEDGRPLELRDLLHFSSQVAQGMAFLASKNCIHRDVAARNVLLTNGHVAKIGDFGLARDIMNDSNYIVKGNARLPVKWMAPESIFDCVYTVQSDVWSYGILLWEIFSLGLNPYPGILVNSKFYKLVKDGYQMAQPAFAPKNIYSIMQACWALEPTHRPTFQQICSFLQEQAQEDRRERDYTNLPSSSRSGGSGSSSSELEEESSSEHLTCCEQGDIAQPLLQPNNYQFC
UniProt P41240: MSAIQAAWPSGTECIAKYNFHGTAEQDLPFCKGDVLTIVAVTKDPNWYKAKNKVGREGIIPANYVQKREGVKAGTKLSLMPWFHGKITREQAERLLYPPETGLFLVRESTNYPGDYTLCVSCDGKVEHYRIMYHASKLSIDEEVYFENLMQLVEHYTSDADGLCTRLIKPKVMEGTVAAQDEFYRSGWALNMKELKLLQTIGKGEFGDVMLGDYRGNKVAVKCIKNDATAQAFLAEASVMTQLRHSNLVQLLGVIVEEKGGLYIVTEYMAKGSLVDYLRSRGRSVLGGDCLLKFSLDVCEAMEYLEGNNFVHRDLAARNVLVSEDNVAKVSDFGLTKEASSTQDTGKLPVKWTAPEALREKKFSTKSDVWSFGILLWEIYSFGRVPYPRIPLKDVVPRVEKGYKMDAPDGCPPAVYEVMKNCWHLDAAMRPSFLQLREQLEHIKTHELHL
UniProt Q08345: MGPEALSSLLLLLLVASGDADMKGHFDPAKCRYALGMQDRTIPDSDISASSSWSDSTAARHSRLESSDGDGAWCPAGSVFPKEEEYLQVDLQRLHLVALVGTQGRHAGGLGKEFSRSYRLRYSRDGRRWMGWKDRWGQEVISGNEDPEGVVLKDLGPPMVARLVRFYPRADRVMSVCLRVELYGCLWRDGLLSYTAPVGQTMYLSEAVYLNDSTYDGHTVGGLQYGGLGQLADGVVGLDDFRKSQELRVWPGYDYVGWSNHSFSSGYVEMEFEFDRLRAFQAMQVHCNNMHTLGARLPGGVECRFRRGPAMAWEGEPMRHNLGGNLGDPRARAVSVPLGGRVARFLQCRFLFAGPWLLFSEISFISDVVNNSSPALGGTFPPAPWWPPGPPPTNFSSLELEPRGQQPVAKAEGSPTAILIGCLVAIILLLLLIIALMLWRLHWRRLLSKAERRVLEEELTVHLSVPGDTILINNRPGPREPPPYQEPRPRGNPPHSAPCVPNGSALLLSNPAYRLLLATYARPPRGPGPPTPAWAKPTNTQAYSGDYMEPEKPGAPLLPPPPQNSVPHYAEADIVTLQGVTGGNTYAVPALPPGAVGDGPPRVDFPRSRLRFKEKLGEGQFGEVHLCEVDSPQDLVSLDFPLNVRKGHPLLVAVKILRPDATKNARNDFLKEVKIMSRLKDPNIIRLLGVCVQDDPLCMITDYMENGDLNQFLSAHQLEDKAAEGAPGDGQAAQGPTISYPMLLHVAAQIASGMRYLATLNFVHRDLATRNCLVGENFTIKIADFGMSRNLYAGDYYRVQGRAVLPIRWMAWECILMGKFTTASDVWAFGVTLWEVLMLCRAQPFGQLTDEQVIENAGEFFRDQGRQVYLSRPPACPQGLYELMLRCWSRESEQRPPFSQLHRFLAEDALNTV
UniProt Q9Y463, whole entry, looked up: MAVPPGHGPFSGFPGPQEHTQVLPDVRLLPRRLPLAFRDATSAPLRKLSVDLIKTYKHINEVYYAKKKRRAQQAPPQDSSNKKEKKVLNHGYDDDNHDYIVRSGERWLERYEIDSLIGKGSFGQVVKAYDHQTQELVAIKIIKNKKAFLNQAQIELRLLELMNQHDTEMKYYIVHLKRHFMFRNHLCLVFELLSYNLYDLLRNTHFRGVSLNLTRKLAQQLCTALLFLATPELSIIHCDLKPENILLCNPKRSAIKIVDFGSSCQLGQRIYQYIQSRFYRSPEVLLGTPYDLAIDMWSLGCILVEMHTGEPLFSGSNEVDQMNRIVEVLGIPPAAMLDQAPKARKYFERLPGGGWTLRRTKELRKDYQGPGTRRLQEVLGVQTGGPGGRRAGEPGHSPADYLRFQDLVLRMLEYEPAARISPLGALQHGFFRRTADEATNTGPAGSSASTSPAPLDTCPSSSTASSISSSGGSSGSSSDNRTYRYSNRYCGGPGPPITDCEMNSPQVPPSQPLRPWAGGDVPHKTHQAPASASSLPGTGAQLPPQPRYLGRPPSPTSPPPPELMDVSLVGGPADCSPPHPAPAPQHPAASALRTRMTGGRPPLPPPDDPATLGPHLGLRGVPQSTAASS
UniProt Q92630: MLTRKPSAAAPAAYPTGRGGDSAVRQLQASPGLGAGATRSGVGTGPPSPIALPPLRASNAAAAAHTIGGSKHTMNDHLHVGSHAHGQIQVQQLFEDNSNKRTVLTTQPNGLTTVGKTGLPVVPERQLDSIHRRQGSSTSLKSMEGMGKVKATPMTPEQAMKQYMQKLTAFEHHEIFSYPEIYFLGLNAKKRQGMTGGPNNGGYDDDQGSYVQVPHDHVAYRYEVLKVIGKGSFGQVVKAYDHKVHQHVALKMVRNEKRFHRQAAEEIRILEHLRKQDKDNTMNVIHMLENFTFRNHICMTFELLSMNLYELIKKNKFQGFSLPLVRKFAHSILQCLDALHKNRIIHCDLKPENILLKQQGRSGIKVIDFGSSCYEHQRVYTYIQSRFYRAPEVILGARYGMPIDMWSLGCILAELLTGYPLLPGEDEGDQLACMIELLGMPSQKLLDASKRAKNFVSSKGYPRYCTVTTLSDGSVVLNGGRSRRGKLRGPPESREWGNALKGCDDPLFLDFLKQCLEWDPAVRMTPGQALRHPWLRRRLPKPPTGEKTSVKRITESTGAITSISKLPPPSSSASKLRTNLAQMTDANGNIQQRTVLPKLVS
UniProt P21860, whole entry: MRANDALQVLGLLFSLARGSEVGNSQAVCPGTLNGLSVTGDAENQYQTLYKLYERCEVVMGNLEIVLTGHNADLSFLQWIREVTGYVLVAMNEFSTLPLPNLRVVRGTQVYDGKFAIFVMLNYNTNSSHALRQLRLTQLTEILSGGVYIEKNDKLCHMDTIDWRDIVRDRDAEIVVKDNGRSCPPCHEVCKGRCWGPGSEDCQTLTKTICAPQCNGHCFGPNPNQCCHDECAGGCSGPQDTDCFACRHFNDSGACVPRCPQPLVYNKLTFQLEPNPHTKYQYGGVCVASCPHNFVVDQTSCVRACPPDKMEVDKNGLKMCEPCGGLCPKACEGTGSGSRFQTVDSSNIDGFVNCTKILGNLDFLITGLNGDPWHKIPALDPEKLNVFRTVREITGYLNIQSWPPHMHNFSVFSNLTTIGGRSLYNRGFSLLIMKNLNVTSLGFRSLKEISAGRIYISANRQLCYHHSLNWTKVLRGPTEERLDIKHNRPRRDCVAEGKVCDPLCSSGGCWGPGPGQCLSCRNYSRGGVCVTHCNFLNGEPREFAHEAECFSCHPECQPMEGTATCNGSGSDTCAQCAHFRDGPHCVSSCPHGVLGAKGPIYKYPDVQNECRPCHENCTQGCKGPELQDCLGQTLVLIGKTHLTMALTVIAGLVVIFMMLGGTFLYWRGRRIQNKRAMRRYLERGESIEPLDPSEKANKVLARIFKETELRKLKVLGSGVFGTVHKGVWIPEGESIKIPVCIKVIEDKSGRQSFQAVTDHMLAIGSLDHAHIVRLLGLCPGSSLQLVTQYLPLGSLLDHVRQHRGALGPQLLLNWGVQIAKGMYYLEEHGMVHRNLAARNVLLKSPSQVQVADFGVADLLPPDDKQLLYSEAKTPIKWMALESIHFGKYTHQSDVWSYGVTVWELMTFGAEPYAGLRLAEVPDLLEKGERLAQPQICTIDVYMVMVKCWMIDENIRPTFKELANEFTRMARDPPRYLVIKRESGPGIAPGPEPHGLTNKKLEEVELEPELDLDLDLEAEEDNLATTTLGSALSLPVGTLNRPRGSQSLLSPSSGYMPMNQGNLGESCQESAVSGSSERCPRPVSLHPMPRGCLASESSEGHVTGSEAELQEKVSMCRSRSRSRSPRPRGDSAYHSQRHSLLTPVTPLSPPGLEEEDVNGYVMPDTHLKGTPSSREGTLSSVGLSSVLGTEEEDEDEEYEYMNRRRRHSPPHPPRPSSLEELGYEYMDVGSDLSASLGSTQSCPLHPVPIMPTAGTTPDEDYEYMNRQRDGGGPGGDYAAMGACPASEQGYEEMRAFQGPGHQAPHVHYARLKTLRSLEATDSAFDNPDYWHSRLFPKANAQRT
UniProt Q15303, whole entry R711C: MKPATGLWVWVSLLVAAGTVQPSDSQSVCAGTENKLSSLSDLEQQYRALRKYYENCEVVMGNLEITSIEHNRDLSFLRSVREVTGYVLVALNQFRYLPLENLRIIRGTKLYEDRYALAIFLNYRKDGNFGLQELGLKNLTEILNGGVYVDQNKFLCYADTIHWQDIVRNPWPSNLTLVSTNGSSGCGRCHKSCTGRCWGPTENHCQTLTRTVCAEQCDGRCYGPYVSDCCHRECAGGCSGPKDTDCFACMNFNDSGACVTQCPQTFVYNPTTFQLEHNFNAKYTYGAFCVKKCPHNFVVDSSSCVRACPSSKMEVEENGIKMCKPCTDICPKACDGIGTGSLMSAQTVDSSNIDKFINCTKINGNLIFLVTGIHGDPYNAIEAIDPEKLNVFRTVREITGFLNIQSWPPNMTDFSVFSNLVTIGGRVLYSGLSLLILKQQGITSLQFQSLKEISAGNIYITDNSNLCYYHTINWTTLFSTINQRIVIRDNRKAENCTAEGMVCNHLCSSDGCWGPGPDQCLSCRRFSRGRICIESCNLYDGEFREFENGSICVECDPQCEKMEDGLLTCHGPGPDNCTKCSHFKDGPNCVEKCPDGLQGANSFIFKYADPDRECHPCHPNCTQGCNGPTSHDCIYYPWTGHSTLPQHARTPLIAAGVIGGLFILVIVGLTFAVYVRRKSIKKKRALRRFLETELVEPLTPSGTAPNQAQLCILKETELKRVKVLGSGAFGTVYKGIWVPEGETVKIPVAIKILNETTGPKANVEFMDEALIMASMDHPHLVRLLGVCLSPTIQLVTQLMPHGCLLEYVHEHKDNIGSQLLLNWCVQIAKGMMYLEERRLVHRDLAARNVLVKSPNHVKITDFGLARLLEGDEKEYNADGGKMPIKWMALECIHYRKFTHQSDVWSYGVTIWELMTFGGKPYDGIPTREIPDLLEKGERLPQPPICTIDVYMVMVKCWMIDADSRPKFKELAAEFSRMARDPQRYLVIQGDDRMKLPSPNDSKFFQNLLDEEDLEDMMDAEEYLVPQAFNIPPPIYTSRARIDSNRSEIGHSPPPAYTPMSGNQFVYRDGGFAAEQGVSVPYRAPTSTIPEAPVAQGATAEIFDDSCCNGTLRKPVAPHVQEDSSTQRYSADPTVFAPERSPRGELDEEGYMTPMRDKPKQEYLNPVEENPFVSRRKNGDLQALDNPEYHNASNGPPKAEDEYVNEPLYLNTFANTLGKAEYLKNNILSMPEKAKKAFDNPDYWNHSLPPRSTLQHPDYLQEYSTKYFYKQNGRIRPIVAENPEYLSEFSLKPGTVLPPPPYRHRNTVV

What was measured:
Assay in all cases: kinase-Nluc reporter destabilization hit call (1 = scored as downregulated) (binary); higher = compound decreases kinase abundance
Conditions in all cases: K562; 2-18 h
CDK7 = CDK7 (UniProt P50613)
CDK9 = CDK9 (UniProt P50750)
CHEK2 = CHEK2 (UniProt O96017)
CSF1R = CSF1R (UniProt P07333)
CSK = CSK (UniProt P41240)
CSNK1A1 = CSNK1A1 (UniProt P48729)
CSNK1D = CSNK1D (UniProt P48730)
DDR1 = DDR1 (UniProt Q08345)
DYRK1B = DYRK1B (UniProt Q9Y463)
DYRK2 = DYRK2 (UniProt Q92630)
EGFR = EGFR (UniProt P00533)
EGFR_G719S = EGFR_G719S (UniProt P00533)
EGFR_G719S_T790M = EGFR_G719S_T790M (UniProt P00533)
EGFR_L718V = EGFR_L718V (UniProt P00533)
EGFR_L858R = EGFR_L858R (UniProt P00533)
EGFR_L861Q = EGFR_L861Q (UniProt P00533)
EGFR_T790M = EGFR_T790M (UniProt P00533)
EPHA2 = EPHA2 (UniProt P29317)
ERBB3 = ERBB3 (UniProt P21860)
[1] = target: ERBB4_R711C (clone: ERBB4_mut) (UniProt Q15303)

Measured: kinase-Nluc reporter destabilization hit call

COc1ncc(Nc2ncc([C@@H](C)N3CCN(S(C)(=O)=O)CC3)cc2-c2nc(C)nc(N)n2)cc1F (10 µM)
inactive: CDK7 = 0 | CDK9 = 0 | CHEK2 = 0 | CSF1R 0 | CSK 0 | CSNK1A1 = 0 | CSNK1D 0 | DDR1 = 0 | DYRK1B 0 | DYRK2 = 0 | EGFR 0 | EGFR_G719S 0 | EGFR_G719S_T790M 0 | EGFR_L718V 0 | EGFR_L858R 0 | EGFR_L861Q 0 | EGFR_T790M 0 | EPHA2 = 0 | ERBB3 = 0 | [1] 0

CN1C(=O)NC(Cc2c[nH]c3c(Cl)cccc23)C1=O (racemic) [Necrostatin 2 (racemate)] (10 µM)
inactive: CDK7 = 0 | CDK9 = 0 | CHEK2 = 0 | CSF1R 0 | CSK 0 | CSNK1A1 = 0 | CSNK1D 0 | DDR1 = 0 | DYRK1B 0 | DYRK2 = 0 | EGFR 0 | EGFR_G719S 0 | EGFR_G719S_T790M 0 | EGFR_L718V 0 | EGFR_L858R 0 | EGFR_L861Q 0 | EGFR_T790M 0 | EPHA2 = 0 | ERBB3 = 0 | [1] 0

Cc1ccc(-c2ccc3c(ccc4sc5c(c43)NC[C@@H](C)NC5=O)n2)cn1 (10 µM)
inactive: CDK7 = 0 | CDK9 = 0 | CHEK2 = 0 | CSF1R 0 | CSK 0 | CSNK1A1 = 0 | CSNK1D 0 | DDR1 = 0 | DYRK1B 0 | DYRK2 = 0 | EGFR 0 | EGFR_G719S 0 | EGFR_G719S_T790M 0 | EGFR_L718V 0 | EGFR_L858R 0 | EGFR_L861Q 0 | EGFR_T790M 0 | EPHA2 = 0 | ERBB3 = 0 | [1] 0

COc1cc(C(=O)N2CCC(N3CCN(C)CC3)CC2)ccc1Nc1ncc2c(n1)N(C)c1ccccc1C(=O)N2C (10 µM)
inactive: CDK7 = 0 | CDK9 = 0 | CHEK2 = 0 | CSF1R 0 | CSK 0 | CSNK1A1 = 0 | CSNK1D 0 | DDR1 = 0 | DYRK1B 0 | DYRK2 = 0 | EGFR 0 | EGFR_G719S 0 | EGFR_G719S_T790M 0 | EGFR_L718V 0 | EGFR_L858R 0 | EGFR_L861Q 0 | EGFR_T790M 0 | EPHA2 = 0 | ERBB3 = 0 | [1] 0

O=c1cc(-c2ccc(O)c(O)c2O)oc2ccccc12 (10 µM)
inactive: CDK7 = 0 | CDK9 = 0 | CHEK2 = 0 | CSF1R 0 | CSK 0 | CSNK1A1 = 0 | CSNK1D 0 | DDR1 = 0 | DYRK1B 0 | DYRK2 = 0 | EGFR 0 | EGFR_G719S 0 | EGFR_G719S_T790M 0 | EGFR_L718V 0 | EGFR_L858R 0 | EGFR_L861Q 0 | EGFR_T790M 0 | EPHA2 = 0 | ERBB3 = 0 | [1] 0

COc1ccccc1/C=C1\C(=O)Nc2ccccc21 (10 µM)
inactive: CDK7 = 0 | CDK9 = 0 | CHEK2 = 0 | CSF1R 0 | CSK 0 | CSNK1A1 = 0 | CSNK1D 0 | DDR1 = 0 | DYRK1B 0 | DYRK2 = 0 | EGFR 0 | EGFR_G719S 0 | EGFR_G719S_T790M 0 | EGFR_L718V 0 | EGFR_L858R 0 | EGFR_L861Q 0 | EGFR_T790M 0 | EPHA2 = 0 | ERBB3 = 0 | [1] 0

Cc1ccc(-c2ncn(-c3ccc(Nc4nccc(-c5cccc(N6CCOCC6)c5)n4)cc3)n2)cn1 (10 µM)
inactive: CDK7 = 0 | CDK9 = 0 | CHEK2 = 0 | CSF1R 0 | CSK 0 | CSNK1A1 = 0 | CSNK1D 0 | DDR1 = 0 | DYRK1B 0 | DYRK2 = 0 | EGFR 0 | EGFR_G719S 0 | EGFR_G719S_T790M 0 | EGFR_L718V 0 | EGFR_L858R 0 | EGFR_L861Q 0 | EGFR_T790M 0 | EPHA2 = 0 | ERBB3 = 0 | [1] 0

CCCCNC(=N)NC(=N)N [Buformin (hydrochloride)] (2.5 µM)
inactive: CDK7 = 0 | CDK9 = 0 | CHEK2 = 0 | CSF1R 0 | CSK 0 | CSNK1A1 = 0 | CSNK1D 0 | DDR1 = 0 | DYRK1B 0 | DYRK2 = 0 | EGFR 0 | EGFR_G719S 0 | EGFR_G719S_T790M 0 | EGFR_L718V 0 | EGFR_L858R 0 | EGFR_L861Q 0 | EGFR_T790M 0 | EPHA2 = 0 | ERBB3 = 0 | [1] 0

O=c1ccc2ccc(O)c(O)c2o1 [Daphnetin] (10 µM)
inactive: CDK7 = 0 | CDK9 = 0 | CHEK2 = 0 | CSF1R 0 | CSK 0 | CSNK1A1 = 0 | CSNK1D 0 | DDR1 = 0 | DYRK1B 0 | DYRK2 = 0 | EGFR 0 | EGFR_G719S 0 | EGFR_G719S_T790M 0 | EGFR_L718V 0 | EGFR_L858R 0 | EGFR_L861Q 0 | EGFR_T790M 0 | EPHA2 = 0 | ERBB3 = 0 | [1] 0

CC(C)(C)c1cc(C(c2cc3c(cc2O)OCO3)N2CCOCC2)cc(C(C)(C)C)c1O (stereo not given) (2.5 µM)
inactive: CDK7 = 0 | CDK9 = 0 | CHEK2 = 0 | CSF1R 0 | CSK 0 | CSNK1A1 = 0 | CSNK1D 0 | DDR1 = 0 | DYRK1B 0 | DYRK2 = 0 | EGFR 0 | EGFR_G719S 0 | EGFR_G719S_T790M 0 | EGFR_L718V 0 | EGFR_L858R 0 | EGFR_L861Q 0 | EGFR_T790M 0 | EPHA2 = 0 | ERBB3 = 0 | [1] 0

O=C1NC(=O)C(=Cc2ccc3c(c2)OCO3)S1 (10 µM)
inactive: CDK7 = 0 | CDK9 = 0 | CHEK2 = 0 | CSF1R 0 | CSK 0 | CSNK1A1 = 0 | CSNK1D 0 | DDR1 = 0 | DYRK1B 0 | DYRK2 = 0 | EGFR 0 | EGFR_G719S 0 | EGFR_G719S_T790M 0 | EGFR_L718V 0 | EGFR_L858R 0 | EGFR_L861Q 0 | EGFR_T790M 0 | EPHA2 = 0 | ERBB3 = 0 | [1] 0

O=C1NC(=O)C(c2cnc3ccccn23)=C1c1cn2c3c(cc(F)cc13)CN(C(=O)N1CCCCC1)CC2 (2.5 µM)
inactive: CDK7 = 0 | CDK9 = 0 | CHEK2 = 0 | CSF1R 0 | CSK 0 | CSNK1A1 = 0 | CSNK1D 0 | DDR1 = 0 | DYRK1B 0 | DYRK2 = 0 | EGFR 0 | EGFR_G719S 0 | EGFR_G719S_T790M 0 | EGFR_L718V 0 | EGFR_L858R 0 | EGFR_L861Q 0 | EGFR_T790M 0 | EPHA2 = 0 | ERBB3 = 0 | [1] 0

CCCC(=O)Nc1nc2c(ncn2[C@@H]2O[C@@H]3COP(=O)(O)O[C@H]3[C@H]2OC(=O)CCC)c(=O)[nH]1 [Dibutyryl-cGMP (sodium)] (10 µM)
inactive: CDK7 = 0 | CDK9 = 0 | CHEK2 = 0 | CSF1R 0 | CSK 0 | CSNK1A1 = 0 | CSNK1D 0 | DDR1 = 0 | DYRK1B 0 | DYRK2 = 0 | EGFR 0 | EGFR_G719S 0 | EGFR_G719S_T790M 0 | EGFR_L718V 0 | EGFR_L858R 0 | EGFR_L861Q 0 | EGFR_T790M 0 | EPHA2 = 0 | ERBB3 = 0 | [1] 0

C=C(F)C(=O)N1CCN(c2nc(OC[C@@H]3CCCN3C)nc3c2CCN(c2cccc4cccc(Cl)c24)C3)C[C@@H]1CC#N (2.5 µM)
inactive: CDK7 = 0 | CDK9 = 0 | CHEK2 = 0 | CSF1R 0 | CSK 0 | CSNK1A1 = 0 | CSNK1D 0 | DDR1 = 0 | DYRK1B 0 | DYRK2 = 0 | EGFR 0 | EGFR_G719S 0 | EGFR_G719S_T790M 0 | EGFR_L718V 0 | EGFR_L858R 0 | EGFR_L861Q 0 | EGFR_T790M 0 | EPHA2 = 0 | ERBB3 = 0 | [1] 0

COC1(C(=O)N[C@@H](C)c2ccc(-n3cc(F)cn3)nc2)CCC(c2nc(C)cc(Nc3cc(C)[nH]n3)n2)CC1 (stereo partly drawn) [trans-Pralsetinib] (2.5 µM)
inactive: CDK7 = 0 | CDK9 = 0 | CHEK2 = 0 | CSF1R 0 | CSK 0 | CSNK1A1 = 0 | CSNK1D 0 | DDR1 = 0 | DYRK1B 0 | DYRK2 = 0 | EGFR 0 | EGFR_G719S 0 | EGFR_G719S_T790M 0 | EGFR_L718V 0 | EGFR_L858R 0 | EGFR_L861Q 0 | EGFR_T790M 0 | EPHA2 = 0 | ERBB3 = 0 | [1] 0

2 compounds drawn at random from those above:
CCCCNC(=N)NC(=N)N [Buformin (hydrochloride)] (2.5 µM)
inactive: CDK7 = 0 | CDK9 = 0 | CHEK2 = 0 | CSF1R 0 | CSK 0 | CSNK1A1 = 0 | CSNK1D 0 | DDR1 = 0 | DYRK1B 0 | DYRK2 = 0 | EGFR 0 | EGFR_G719S 0 | EGFR_G719S_T790M 0 | EGFR_L718V 0 | EGFR_L858R 0 | EGFR_L861Q 0 | EGFR_T790M 0 | EPHA2 = 0 | ERBB3 = 0 | [1] 0

COc1ncc(Nc2ncc([C@@H](C)N3CCN(S(C)(=O)=O)CC3)cc2-c2nc(C)nc(N)n2)cc1F (10 µM)
inactive: CDK7 = 0 | CDK9 = 0 | CHEK2 = 0 | CSF1R 0 | CSK 0 | CSNK1A1 = 0 | CSNK1D 0 | DDR1 = 0 | DYRK1B 0 | DYRK2 = 0 | EGFR 0 | EGFR_G719S 0 | EGFR_G719S_T790M 0 | EGFR_L718V 0 | EGFR_L858R 0 | EGFR_L861Q 0 | EGFR_T790M 0 | EPHA2 = 0 | ERBB3 = 0 | [1] 0

(list continues)

CNC(=O)c1cc(Oc2ccc3nc(N[C@@H]4CCCC[C@H]4O)sc3c2)ccn1 (10 µM)
inactive: CDK7 = 0 | CDK9 = 0 | CHEK2 = 0 | CSF1R 0 | CSK 0 | CSNK1A1 = 0 | CSNK1D 0 | DDR1 = 0 | DYRK1B 0 | DYRK2 = 0 | EGFR 0 | EGFR_G719S 0 | EGFR_G719S_T790M 0 | EGFR_L718V 0 | EGFR_L858R 0 | EGFR_L861Q 0 | EGFR_T790M 0 | EPHA2 = 0 | ERBB3 = 0 | [1] 0

COC(=O)N[C@@H](C)CNc1nccc(-c2cn(C(C)C)nc2-c2cc(Cl)cc(NS(C)(=O)=O)c2F)n1 [Encorafenib] (10 µM)
inactive: CDK7 = 0 | CDK9 = 0 | CHEK2 = 0 | CSF1R 0 | CSK 0 | CSNK1A1 = 0 | CSNK1D 0 | DDR1 = 0 | DYRK1B 0 | DYRK2 = 0 | EGFR 0 | EGFR_G719S 0 | EGFR_G719S_T790M 0 | EGFR_L718V 0 | EGFR_L858R 0 | EGFR_L861Q 0 | EGFR_T790M 0 | EPHA2 = 0 | ERBB3 = 0 | [1] 0
